The values that follow come from PMC11670450.

By UniProt entry, the sequences of proteins in these tests, tags left out. Residues count along the entry.
UniProt P05106, residues 27-788: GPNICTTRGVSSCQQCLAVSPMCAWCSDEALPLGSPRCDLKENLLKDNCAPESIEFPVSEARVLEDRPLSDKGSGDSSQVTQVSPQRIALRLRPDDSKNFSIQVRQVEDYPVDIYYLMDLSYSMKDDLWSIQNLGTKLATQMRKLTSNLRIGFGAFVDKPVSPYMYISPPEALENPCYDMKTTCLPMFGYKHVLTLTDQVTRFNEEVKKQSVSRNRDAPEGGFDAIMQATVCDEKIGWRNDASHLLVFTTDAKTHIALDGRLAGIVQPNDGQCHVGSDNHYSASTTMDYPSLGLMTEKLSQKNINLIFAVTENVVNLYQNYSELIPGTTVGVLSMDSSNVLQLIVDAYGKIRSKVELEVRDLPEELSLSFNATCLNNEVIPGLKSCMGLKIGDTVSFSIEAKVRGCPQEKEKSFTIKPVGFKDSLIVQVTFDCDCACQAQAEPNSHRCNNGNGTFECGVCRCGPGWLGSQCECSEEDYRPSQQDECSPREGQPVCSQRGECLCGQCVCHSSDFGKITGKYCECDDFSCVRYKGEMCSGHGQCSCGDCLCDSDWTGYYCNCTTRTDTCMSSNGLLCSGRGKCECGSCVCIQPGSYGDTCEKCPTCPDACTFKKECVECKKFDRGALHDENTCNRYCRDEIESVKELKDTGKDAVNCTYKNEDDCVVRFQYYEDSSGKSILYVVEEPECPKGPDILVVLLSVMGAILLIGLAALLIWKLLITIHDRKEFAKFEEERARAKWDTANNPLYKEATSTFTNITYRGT

Results are given in words; binding and its absence hold for the method and conditions named. In cells and extracts the contact can be indirect. These calls come from enrichment with a bait or labelling near it, and not all partners need be listed.

B1: Sodium- and chloride-dependent creatine transporter 1 (protein, UniProt P48029 1-635)
chain: MAKKSAENGIYSVSGDEKKGPLIAPGPDGAPAKGDGPVGLGTPGGRLAVPPRETWTRQMDFIMSCVGFAVGLGNVWRFPYLCYKNGGGVFLIPYVLIALVGGIPIFFLEISLGQFMKAGSINVWNICPLFKGLGYASMVIVFYCNTYYIMVLAWGFYYLVKSFTTTLPWATCGHTWNTPDCVEIFRHEDCANASLANLTCDQLADRRSPVIEFWENKVLRLSGGLEVPGALNWEVTLCLLACWVLVYFCVWKGVKSTGKIVYFTATFPYVVLVVLLVRGVLLPGALDGIIYYLKPDWSKLGSPQVWIDAGTQIFFSYAIGLGALTALGSYNRFNNNCYKDAIILALINSGTSFFAGFVVFSILGFMAAEQGVHISKVAESGPGLAFIAYPRAVTLMPVAPLWAALFFFMLLLLGLDSQFVGVEGFITGLLDLLPASYYFRFQREISVALCCALCFVIDLSMVTDGGMYVFQLFDYYSASGTTLLWQAFWECVVVAWVYGADRFMDDIACMIGYRPCPWMKWCWSFFTPLVCMGIFIFNVVYYEPLVYNNTYVYPWWGEAMGWAFALSSMLCVPLHLLGCLLRAKGTMAERWQHLTQPIWGLHHLEYRAQDADVRGLTTLTPVSESSKVVVVESVM
B2: Keratin, type II cytoskeletal 80 (protein, UniProt Q6KB66 1-452)
chain: MACRSCVVGFSSLSSCEVTPVGSPRPGTSGWDSCRAPGPGFSSRSLTGCWSAGTISKVTVNPGLLVPLDVKLDPAVQQLKNQEKEEMKALNDKFASLIGKVQALEQRNQLLETRWSFLQGQDSAIFDLGHLYEEYQGRLQEELRKVSQERGQLEANLLQVLEKVEEFRIRYEDEISKRTDMEFTFVQLKKDLDAECLHRTELETKLKSLESFVELMKTIYEQELKDLAAQVKDVSVTVGMDSRCHIDLSGIVEEVKAQYDAVAARSLEEAEAYSRSQLEEQAARSAEYGSSLQSSRSEIADLNVRIQKLRSQILSVKSHCLKLEENIKTAEEQGELAFQDAKTKLAQLEAALQQAKQDMARQLRKYQELMNVKLALDIEIATYRKLVEGEEGRMDSPSATVVSAVQSRCKTAASRSGLSKAPSRKKKGSKGPVIKITEMSEKYFSQESEVSE
B3: Keratin, type I cytoskeletal 27 (protein, UniProt Q7Z3Y8 1-459)
chain: MSVRFSSTSRRLGSCGGTGSVRLSSGGAGFGAGNTCGVPGIGSGFSCAFGGSSSAGGYGGGLGGGSASCAAFTGNEHGLLSGNEKVTMQNLNDRLASYLENVRALEEANADLEQKIKGWYEKFGPGSCRGLDHDYSRYFPIIDELKNQIISATTSNAHVVLQNDNARLTADDFRLKFENELALHQSVEADINGLRRVLDELTLCRTDLEIQLETLSEELAYLKKNHEEEMKALQCAAGGNVNVEMNAAPGVDLTVLLNNMRAEYEALAEQNRRDAEAWFNEKSASLQQQISDDAGATTSARNELIEMKRTLQTLEIELQSLLATKHSLECSLTETESNYCAQLAQIQAQIGALEEQLHQVRTETEGQKLEYEQLLDIKVHLEKEIETYCLLIDGEDGSCSKSKGYGGPGNQTKDSSKTTIVKTVVEEIDPRGKVLSSRVHTVEEKSTKVNNKNEQRVSS

The target in this assay is Integrin beta-3 (human (endogenous in HTR-8/SVneo)) (UniProt P05106). Nature of the assay: affinity purification with mass spectrometry; HTR-8/SVneo cell lysate incubated with anti-ITGB3 antibody or nonimmune IgG at 4 °C overnight, protein A/G beads, washes in TBS with 0.05% Tween-20, glycine pH 2.7 elution; SDS-PAGE, silver stain, in-gel digest of the enriched band, LC-MS/MS; proteins specific to the ITGB3 group, abundance threshold > 20.
In the case of B1, the binding result is given as “binds”.
As to B2, the binding result is recorded as “binds”.
With B3 the entry was “binds”.
